Assay results: paper PMC6179184, “Interaction of the Warsaw breakage syndrome DNA helicase DDX11 with the replication fork-protection factor Timeless promotes sister chromatid cohesion” (PLoS Genetics, 2018)
Residue numbers refer to the chain shown, from its start. Read-outs that look alike come from different tables or passages of the source. Results are given in words; binding and its absence hold for the method and conditions named. In cells and extracts the contact can be indirect. Some entries that bind do so weakly or less than the wild type. Where a sequence is shown, tags or fusion partners need not be part of it.

Chains of the proteins cited; added tags and fusions are not shown.
UniProt Q9UNS1: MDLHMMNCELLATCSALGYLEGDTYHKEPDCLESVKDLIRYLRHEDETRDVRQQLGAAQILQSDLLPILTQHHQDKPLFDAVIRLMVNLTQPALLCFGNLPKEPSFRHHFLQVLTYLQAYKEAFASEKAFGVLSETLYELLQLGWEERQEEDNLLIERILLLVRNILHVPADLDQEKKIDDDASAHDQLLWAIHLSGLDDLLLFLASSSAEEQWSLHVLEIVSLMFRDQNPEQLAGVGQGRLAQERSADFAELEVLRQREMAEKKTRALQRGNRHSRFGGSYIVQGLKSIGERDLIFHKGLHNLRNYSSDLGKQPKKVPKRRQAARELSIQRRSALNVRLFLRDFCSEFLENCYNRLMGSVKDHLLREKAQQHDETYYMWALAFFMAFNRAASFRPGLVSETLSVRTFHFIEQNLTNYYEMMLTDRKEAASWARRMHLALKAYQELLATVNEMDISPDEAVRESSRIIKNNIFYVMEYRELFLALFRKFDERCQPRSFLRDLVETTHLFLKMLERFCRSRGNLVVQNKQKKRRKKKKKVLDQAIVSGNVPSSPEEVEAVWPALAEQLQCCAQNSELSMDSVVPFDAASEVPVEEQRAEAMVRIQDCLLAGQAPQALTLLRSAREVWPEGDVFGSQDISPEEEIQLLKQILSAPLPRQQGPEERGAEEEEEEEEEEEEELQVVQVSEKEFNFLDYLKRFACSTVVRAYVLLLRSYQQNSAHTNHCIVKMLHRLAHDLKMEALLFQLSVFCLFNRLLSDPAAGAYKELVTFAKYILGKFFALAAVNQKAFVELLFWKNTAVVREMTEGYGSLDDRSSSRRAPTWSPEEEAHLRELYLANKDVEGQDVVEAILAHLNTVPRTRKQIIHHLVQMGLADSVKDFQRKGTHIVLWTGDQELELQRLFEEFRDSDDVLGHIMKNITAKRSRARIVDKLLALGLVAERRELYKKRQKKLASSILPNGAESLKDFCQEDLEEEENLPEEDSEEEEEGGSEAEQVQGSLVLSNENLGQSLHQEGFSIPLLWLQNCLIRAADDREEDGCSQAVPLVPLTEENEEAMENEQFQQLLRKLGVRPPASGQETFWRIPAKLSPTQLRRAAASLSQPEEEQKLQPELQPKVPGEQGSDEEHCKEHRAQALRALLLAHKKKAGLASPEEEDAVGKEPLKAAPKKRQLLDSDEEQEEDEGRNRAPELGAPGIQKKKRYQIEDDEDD

B1: endogenous WDHD1 (HEK 293T) (protein, UniProt O75717 1-1129)
chain: MPATRKPMRYGHTEGHTEVCFDDSGSFIVTCGSDGDVRIWEDLDDDDPKFINVGEKAYSCALKSGKLVTAVSNNTIQVHTFPEGVPDGILTRFTTNANHVVFNGDGTKIAAGSSDFLVKIVDVMDSSQQKTFRGHDAPVLSLSFDPKDIFLASASCDGSVRVWQISDQTCAISWPLLQKCNDVINAKSICRLAWQPKSGKLLAIPVEKSVKLYRRESWSHQFDLSDNFISQTLNIVTWSPCGQYLAAGSINGLIIVWNVETKDCMERVKHEKGYAICGLAWHPTCGRISYTDAEGNLGLLENVCDPSGKTSSSKVSSRVEKDYNDLFDGDDMSNAGDFLNDNAVEIPSFSKGIINDDEDDEDLMMASGRPRQRSHILEDDENSVDISMLKTGSSLLKEEEEDGQEGSIHNLPLVTSQRPFYDGPMPTPRQKPFQSGSTPLHLTHRFMVWNSIGIIRCYNDEQDNAIDVEFHDTSIHHATHLSNTLNYTIADLSHEAILLACESTDELASKLHCLHFSSWDSSKEWIIDLPQNEDIEAICLGQGWAAAATSALLLRLFTIGGVQKEVFSLAGPVVSMAGHGEQLFIVYHRGTGFDGDQCLGVQLLELGKKKKQILHGDPLPLTRKSYLAWIGFSAEGTPCYVDSEGIVRMLNRGLGNTWTPICNTREHCKGKSDHYWVVGIHENPQQLRCIPCKGSRFPPTLPRPAVAILSFKLPYCQIATEKGQMEEQFWRSVIFHNHLDYLAKNGYEYEESTKNQATKEQQELLMKMLALSCKLEREFRCVELADLMTQNAVNLAIKYASRSRKLILAQKLSELAVEKAAELTATQVEEEEEEEDFRKKLNAGYSNTATEWSQPRFRNQVEEDAEDSGEADDEEKPEIHKPGQNSFSKSTNSSDVSAKSGAVTFSSQGRVNPFKVSASSKEPAMSMNSARSTNILDNMGKSSKKSTALSRTTNNEKSPIIKPLIPKPKPKQASAASYFQKRNSQTNKTEEVKEENLKNVLSETPAICPPQNTENQRPKTGFQMWLEENRSNILSDNPDFSDEADIIKEGMIRFRVLSTEERKVWANKAKGETASEGTEAKKRKRVVDESDETENQEEKAKENLNLSKKQKPLDFSTNQKLSAFAFKQE
B2: endogenous Cdc45 (HEK 293T) (protein, UniProt O75419 1-566)
chain: MFVSDFRKEFYEVVQSQRVLLFVASDVDALCACKILQALFQCDHVQYTLVPVSGWQELETAFLEHKEQFHYFILINCGANVDLLDILQPDEDTIFFVCDTHRPVNVVNVYNDTQIKLLIKQDDDLEVPAYEDIFRDEEEDEEHSGNDSDGSEPSEKRTRLEEEIVEQTMRRRQRREWEARRRDILFDYEQYEYHGTSSAMVMFELAWMLSKDLNDMLWWAIVGLTDQWVQDKITQMKYVTDVGVLQRHVSRHNHRNEDEENTLSVDCTRISFEYDLRLVLYQHWSLHDSLCNTSYTAARFKLWSVHGQKRLQEFLADMGLPLKQVKQKFQAMDISLKENLREMIEESANKFGMKDMRVQTFSIHFGFKHKFLASDVVFATMSLMESPEKDGSGTDHFIQALDSLSRSNLDKLYHGLELAKKQLRATQQTIASCLCTNLVISQGPFLYCSLMEGTPDVMLFSRPASLSLLSKHLLKSFVCSTKNRRCKLLPLVMAAPLSMEHGTVTVVGIPPETDSSDRKNFFGRAFEKAAESTSSRMLHNHFDLSVIELKAEDRSKFLDALISLLS

Columns and labels:
Assay in all cases: co-IP; whole cell extracts of HEK 293T cells transiently expressing DDX11-3xFlag (wild type or mutants), anti-Flag M2 agarose beads, 50 mM Tris-HCl pH 8.0, 150 mM NaCl, 0.25% Triton X-100, 10% glycerol, 2 hr at 4 C, elution with Flag peptide; Western blot of endogenous partners
[1] = target: T1, DDX11-3xFlag K50R mutant (human) (UniProt Q96FC9)
T1 sequence: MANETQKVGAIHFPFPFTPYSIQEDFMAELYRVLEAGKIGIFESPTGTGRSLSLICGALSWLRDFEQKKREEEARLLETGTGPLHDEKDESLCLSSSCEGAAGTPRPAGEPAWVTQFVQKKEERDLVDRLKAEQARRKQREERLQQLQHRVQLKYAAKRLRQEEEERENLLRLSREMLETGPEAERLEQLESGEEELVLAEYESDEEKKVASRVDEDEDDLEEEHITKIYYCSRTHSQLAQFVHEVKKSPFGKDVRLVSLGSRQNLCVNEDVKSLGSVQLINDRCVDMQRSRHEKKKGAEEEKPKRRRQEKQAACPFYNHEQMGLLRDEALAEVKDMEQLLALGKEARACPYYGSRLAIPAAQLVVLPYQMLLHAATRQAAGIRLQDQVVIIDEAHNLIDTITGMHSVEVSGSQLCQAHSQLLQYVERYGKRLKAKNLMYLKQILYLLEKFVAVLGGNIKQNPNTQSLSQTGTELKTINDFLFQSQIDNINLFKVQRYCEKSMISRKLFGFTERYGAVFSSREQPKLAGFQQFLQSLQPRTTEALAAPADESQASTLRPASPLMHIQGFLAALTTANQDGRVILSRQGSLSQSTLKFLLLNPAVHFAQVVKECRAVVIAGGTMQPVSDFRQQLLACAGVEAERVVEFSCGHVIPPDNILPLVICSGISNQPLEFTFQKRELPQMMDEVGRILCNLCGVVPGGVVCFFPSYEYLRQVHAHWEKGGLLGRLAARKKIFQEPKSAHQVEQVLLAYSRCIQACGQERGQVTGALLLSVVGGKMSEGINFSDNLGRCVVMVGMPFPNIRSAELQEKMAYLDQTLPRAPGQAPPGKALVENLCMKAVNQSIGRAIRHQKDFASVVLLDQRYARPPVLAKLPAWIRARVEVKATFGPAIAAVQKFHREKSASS

[2] = target: T1, DDX11-3xFlag K50R mutant (human); remark: listed apart in the source
[3] = target: T2, DDX11-3xFlag KAK mutant (human) (UniProt Q96FC9)
T2 sequence: T1 sequence with R50K, E201K, Y202A, E203K

Row | Molecule | binding [1] | binding [2] | binding [3]
1 | endogenous Timeless (HEK 293T) (from UniProt Q9UNS1 1-1208) | binds | – | –
2 | B1 | – | binds | binds
3 | B2 | – | binds | binds
